This passage reports binding results from article PMC7463958.

Test [1] concerns the target LexA-Msx1 homeodomain (161-225aa), Arg161-Gln225 (human). As to the kind of experiment: two-hybrid; directed test in EGY48 yeast: LexA-Msx1 constructs with B42-PIASy constructs; growth on medium lacking leucine at 30 °C and β-galactosidase (X-gal, ONPG).
For test [2], the target named is pGilda/LexA-human Msx1 fusion protein, Msx1 (1-297) (human). The test is described as above.
For test [3] the target is unchanged. Kind of test: two-hybrid; screen of a human ovary cDNA library (B42 fusions) with LexA-human Msx1 as bait; 4.5 x 10^6 transformants; selection on Ura-, His-, Trp-, Leu- medium, galactose dependency.

These are yes or no findings as the source states them, for the method shown. Binding calls can cover weak binding; strength is not graded here.

B1: B42-human protein inhibitor of activated STAT Y (PIASy), full length (1-510) (protein, UniProt Q8N2W9 1-510)
chain: MAAELVEAKNMVMSFRVSDLQMLLGFVGRSKSGLKHELVTRALQLVQFDCSPELFKKIKELYETRYAKKNSEPAPQPHRPLDPLTMHSTYDRAGAVPRTPLAGPNIDYPVLYGKYLNGLGRLPAKTLKPEVRLVKLPFFNMLDELLKPTELVPQNNEKLQESPCIFALTPRQVELIRNSRELQPGVKAVQVVLRICYSDTSCPQEDQYPPNIAVKVNHSYCSVPGYYPSNKPGVEPKRPCRPINLTHLMYLSSATNRITVTWGNYGKSYSVALYLVRQLTSSELLQRLKTIGVKHPELCKALVKEKLRLDPDSEIATTGVRVSLICPLVKMRLSVPCRAETCAHLQCFDAVFYLQMNEKKPTWMCPVCDKPAPYDQLIIDGLLSKILSECEDADEIEYLVDGSWCPIRAEKERSCSPQGAILVLGPSDANGLLPAPSVNGSGALGSTGGGGPVGSMENGKPGADVVDLTLDSSSSSEDEEEEEEEEEDEDEEGPRPKRRCPFQKGLVPAC
B1: the binding result in test [1] and in test [2] was “binds” throughout.

B2: PIASy cDNA clone isolated from the human ovary cDNA library (pJG4-5/B42-cDNA insert) (domain or fragment, UniProt Q8N2W9 415-510)
chain: CSPQGAILVLGPSDANGLLPAPSVNGSGALGSTGGGGPVGSMENGKPGADVVDLTLDSSSSSEDEEEEEEEEEDEDEEGPRPKRRCPFQKGLVPAC
For the molecule B2, the binding result in test [3] was “binds”.
